Substitutions are numbered along the chain they refer to. No constants are given. Whether binding was seen depends on the method and setting.
B1: CD8B246 (antibody, human IgG1, kappa, V domains shown)
VH: QVQLKESGPGILKPSQTLSLTCSFSGFSLSTSGMNVGWIRQPSGKGLEWLAHIWWDDDKYYNPSLKSQLTISKDTSRNQVFLKITSVDTADTATYYCARRGNYGNYEFAYWGQGTTLTVSS
VL: DIQMTQTTSSLSASLGDRVTISCRASQDIRNYLNWYQQKPDGTVKLLIYHTSRLHSGVPSRFSGSGSGTDYSLTISNLEQEDIATYFCQQGNTLPWTFGAGTKLELKR
B2: CD8B303 (antibody, human IgG1, kappa, V domains shown)
VH: QVQLKESGPGLVAPSQSLSITCTVSGFSLSIYSIHWVRQPPGKGLEWLGMIWGGGSTDYNSTLNSRLSIIKDNSKSQVFLKMNSLQTDDTAMYYCARNPHHYGGSTGAMDYWGQGTTVTVSS
VL: DVQMIQSPSSLSASLGGTVTITCKASQDIKKYMAWYQHKPGKGPRLLIHYTSSLQPGIPSRFSGSGSGRDYYFSISNLEPEDIATYFCLQYDNLFTFGSGTKLELKR
B3: CD8B304 (antibody, human IgG1, kappa, V domains shown)
VH: B1 VH with Q3T, L117V
VL: B1 VL with E79D
B4: CD8B312 (antibody, human IgG1, kappa, V domains shown)
VH: QVQLQQPGADLVKPGASVKLSCKASGYTFTSFWMHWVKQRPGQGLEWIGNVDPSDSQTHYNQKFKDKATLTVDKSSNTAYMQLSSLTSEDSAVYYCARSTYYRYDGPFTYWGQGTTVTVSS
VL: DIVLTQSPATLSVTPGDSVSLSCRASQSINNNLHWYQQKSHESPRLLIKYTSQSISGIPSRFSGSGSGPDFTLSINSVETEDFGMYFCQQSNSWPLTFGGGTKLEIKR
B5: CD8B350 (antibody, human IgG1, kappa, V domains shown)
VH: EVQLQQSGAELAKPGTSVKMSCKASGYTFAAYWINWLKQRPGQGLEWIGSINPSNGYTEYSQKFKDKAILTADKSSSTAYMQLSSLTSEDSAVYYCSRSGLYYTNHLAWCPYWGQGTTVTVSS
VL: DIVMTQSPASLSASVGETVTITCRASGNIHNYLAWYQQKQGKSPQVLVYNAETLADSVPSRFSGSGSGTQFSLKINSLQPEDFGNYYCQHFWNSPLTFGGGTKLEIKR
B6: CD8B268 (antibody, human IgG1, kappa, V domains shown)
VH: QVQLQQSGAELVKPGASVKLSCKASGYTFTVYTIHWVKQRSGQGLEWIGWFYPGSGNIKYNEKFKDKATLTADKSSHTVYMELSRLTSEDSAVYFCARHEDNHYYDGNSWFAYWGQGTLVTVSA
VL: B5 VL with V3Q, E17Q, Y36F, V46L, E52K, S57G, F71Y, P80T, S94T, L96Y
B7: CD8B271 (antibody, human IgG1, kappa, V domains shown)
VH: DVQLQESGPGLVAPSQSLSITCTVSGFSLSIYSIHWVRQPPGKGLEWLGMIWGGGDTDYNSALKSRLSISKDNSESQVFLKMNSLQTDDTAMYYCARNPHYYGGTYEYFDVWGTGTTVTVSS
VL: DIQMTQTTSSLSASLGDRVTISCSASQGISNYLNWYQQKPDGTVKLLIYDTSILYSGVPSRFSGSGSGTDYSLTISNLEPEDVATYYCQQYSNLPYTFGSGTKLEIKR
B8: CD8B273 (antibody, human IgG1, kappa, V domains shown)
VH: B6 VH with V31E, S55T, N57S, R85K
VL: DIQMTQSPASLSASVGETVTITCRASGNIHNYLAWFQQKQGKSPQLLVYNAKTLADGVPSRFSGSGSGTQYSLKINSLQAEDFGSYYCQHFWSTPYTFGSGTKLEIKR
B9: CD8B186 (antibody, human IgG1, kappa, V domains shown)
VH: QVQLQQSGAELAKPGASVKMSCKASGYIFTSYWMHWVKQRPGQGLEWIGNINPSSGYAVYNQKFKDKATLTADQSSSTAYIQLNSLTSEDSAVYYCARRVFYGDSWFAYWGQGTSVTVSS
VL: B8 VL with I2V, T5I, F36Y, A80P, P95T, Y96W, S100G
B10: CD8B192 (antibody, human IgG1, kappa, V domains shown)
VH: QVQLQQSGPVLVKPGASVKMSCKASGYTFTDYYMNWVMQSHGKSLEWIGVINPYNGGTTYNQRFTGKATLTVDKSSSTAYMELNSLTSEDSAVYYCARNYGAMDSWGQGTSVTVSS
VL: B8 VL with F36Y, Y49S, S63G, A80P, S93I, Y96P, S100A, K103R
B11: CD8B245 (antibody, human IgG1, kappa, V domains shown)
VH: EFQLQQSGGGLVQPGGSLSLSCAAPGFTFTDYYMSWVRQSPGKALEWLALSRNKGNGYTTEYSASVKGRFTISRDNSQSILYLQMNVLRAEDSATYYCARTVTGTLFYYALDYWGQGTTVTVSS
VL: DIQMTQSPASLSASVGETVTITCRASENIYSYLAWYQQKQGKSPQFLVYNAKTLAAGVPSRFSGSGSGTQFSLKINRLQPEDFGTYYCQHHYGTPLTFGDGTRLEIKR
B12: CD8B248 (antibody, human IgG1, kappa, V domains shown)
VH: EVQLQQSGAELARPGASVKMSCKASGYTFTTYTMHWVKQRPGQGLEWIGYINPSSGYTKYNQKFTDKATLTADKSSSTAYMQLSSLTSEDSAVYYCARLWAYWGQGTLVTVSA
VL: DVVMTQTPLSLPVSLGDQASISCRSSQSLVHSSGNTYLHWYLQKPGQSPKLLIYKGSNRFSGVSDRFSGSGSGTDFTLKISRVEAEDLGVYFCSQSTHVPFTFGSGTKLEMKR
B13: CD8B250 (antibody, human IgG1, kappa, V domains shown)
VH: QVQLKESGPGLVAPSQSLSITCTVSGFSLSNYVVHWVRQSPGKGLEWLGVIWTDGSTDYNAAFISRLSISKDNSKSQVFFKMNSLQADDTAIYYCARNNGYFPAFFAYWGQGTLVTVSA
VL: DIVMTQSQKFMSTSVGDRVSVTCKASQNVDTDITWYQQKPGQSPKALIYSASYRYSGVPDRFTGSGSGTDFTLTITNVQSEDLAEYFCQQYNSYPLTFGSGTKLEMKR
B14: CD8B254 (antibody, human IgG1, kappa, V domains shown)
VH: EVQLQQSGAELVKPGASVKMSCKTSGYTFSSYWITWVKQRPGQGLEWVGDIYPGSGSTNYNEKFKSKAALTVDTSSSTAFMQLNSLTSEDSAVYYCARESITTRITPFDHWGQGTTLTVSS
VL: B12 VL with M111I
B15: CD8B311 (antibody, human IgG1, kappa, V domains shown)
VH: QVQLKESGPELVKPGASVKLSCKASGYTFTSYWMHWVKQRPGQGLEWIGMIHPNSGSTNYNEKFKSKATLTVDKSSSTAYMQLSSLTSEDSAVYYCARCGYDGAWFAYWGQGTSVTVSS
VL: B7 VL with Y32C, Y49H, D50Y, I53S, Y55H, S65G, D70H, V83I, N93K, L94V
B16: CD8B362 (antibody, human IgG1, kappa, V domains shown)
VH: EVKLVESGAELVKPGASVKLSCTASGFNIKDTYMHWVKQRPEQGLEWIGRIDPANGHTKFDPKFQGKATITADTSSNTAYLQLSSLTSEDTAVYYCAIRFAYWGQGTLVTVSA
VL: DIQMTQSPSSLSASLGDRVSLTCRASHEISGYLSWLQQKPDGTFKRLIYAASTLDSGVPKRFSGSRSGSDYSLSISSLESEDFADYYCLQYSSYPYTFGSGTKLEMKR
B17: CD8B356 (antibody, human IgG1, kappa, V domains shown)
VH: DVQLQESGPGLVKPSQSLSLTCSVTGYSITSGYYWNWIRQFPGNKLEWMGYISYDGSNNYNPSLKNRISITRDTSKNQFFLKLNSVTTEDTATYYCVRNHGDAMDYWGQGTSVTVSS
VL: DIVLTQSQKFMSTTVGDRVSITCKASQNVGTAVAWYQQKPGQSPKLLIYSASYRYTGVPDRFTGSGSGTHFTLTISNMQSEDLADYFCQQYSSYLTFGSGTKLEIKR
B18: CD8B182 (antibody, human IgG1, kappa, V domains shown)
VH: EVQLQQSGAALAKPGTSVKMSCKASGYTFTSYWMNWVRQRPGQGLEWIGAVNPTNYYTEYIQKFKDKAILTADKSSSTAYMHLSGLTSEDSAVYYCARSGLYNTNHLAWFAYWGQGTTVTVSS
VL: DIKMTQSPASLSASVGETVTITCRASENIHNYLAWYQQIQGKSPQLLVYNAKTLANGVPSRFSGSASGTQFSLTINSLQPEDFGSYYCQHFWTTPLTFGAGTKLELKR
B19: CD8B251 (antibody, human IgG1, kappa, V domains shown)
VH: QVQLKGSGPGLVQPSQSLSITCTVSGFSLTTYAVHWVRQSPGKGLEWLGVIWSGGSTDYNAAFISRLSISKDNSKSQVFFKMNSLQADDTAIYYCARHSYYHYNAMDNWGQGTSVTVSS
VL: DIKMTQSQKFMSTTVGDRVSITCKASQNVGTAVAWYQQKPGQSPKLLIYSASNRYTGVPDRFTGSGSGTDFTLTISNMQSEDLADYFCQQYSSYPFTFGSGTKLEIKR
B20: CD8B269 (antibody, human IgG1, kappa, V domains shown)
VH: B17 VH with Y106H, S112T, V113L
VL: B13 VL with S20R, D30G, I33V, T34A, T76S, N77D, N92K, S100A, M106L

Each binder was assayed against Human CD8αα fused to human Fc (human) (assay: SPR, Biacore 8K, mAb captured, single cycle kinetics).
B1 was tested, and the binding was “no binding (tested: 100 nM (highest concentration tested))”.
In the case of B2, the binding is reported as “no binding (tested: 100 nM (highest concentration tested))”.
With B3 the binding was “no binding (tested: 100 nM (highest concentration tested))”.
B4 was tested, and the binding was “no binding (tested: 100 nM (highest concentration tested))”.
In the case of B5, the binding is reported as “no binding (tested: 100 nM (highest concentration tested))”.
With B6 the binding was “no binding (tested: 100 nM (highest concentration tested))”.
For B7, the binding was “no binding (tested: 100 nM (highest concentration tested))”.
With B8 the binding was “no binding (tested: 100 nM (highest concentration tested))”.

The binders below were run against Human CD8αα fused to human Fc (human) (assay: SPR (Biacore 8k), mAb captured, single cycle kinetics).
In the case of B9, the binding is reported as “no binding (tested: 11.1, 33.3 and 100 nM tested)”.
B10 was tested, and the binding was “no binding (tested: 11.1, 33.3 and 100 nM tested)”.
B11 was tested, and the binding was “no binding (tested: 11.1, 33.3 and 100 nM tested)”.
For B12, the binding was “no binding (tested: 11.1, 33.3 and 100 nM tested)”.
For B13, the binding was “no binding (tested: 11.1, 33.3 and 100 nM tested)”.
In the case of B14, the binding is reported as “no binding (tested: 11.1, 33.3 and 100 nM tested)”.
With B15 the binding was “no binding (tested: 11.1, 33.3 and 100 nM tested)”.
With B16 the binding was “no binding (tested: 11.1, 33.3 and 100 nM tested)”.

These binders were tested against Human CD8αα fused to human Fc (human) (assay: SPR (Biacore 8K), mAb captured, single cycle kinetics).
In the case of B17, the binding is reported as “no binding (tested: 100 nM (highest concentration tested))”.
In the case of B18, the binding is reported as “no binding (tested: 100 nM (highest concentration tested))”.
For B19, the binding was “no binding (tested: 100 nM (highest concentration tested))”.
B20 was tested, and the binding was “no binding (tested: 100 nM (highest concentration tested))”.

Source: patent US20220112288A1
